No constants are given. Whether binding was seen depends on the method and setting. Some entries that bind do so weakly or less than the wild type.
Columns and labels:
[1] = molecular target: urea denatured human vitronectin (conformationally altered) (human) (UniProt P04004); assay: ELISA on immobilized uVn, anti-PAI-1 detection; not with high affinity
[2] = molecular target: urea denatured human vitronectin (conformationally altered) (human) (UniProt P04004); assay: solid phase assay on dVn-coated plates, anti-PAI-1 detection; not with high affinity
[3] = molecular target: native human vitronectin (human) (UniProt P04004); assay: ELISA on immobilized nVn, anti-PAI-1 detection (FIG. 38)

The chains behind the UniProt entries cited, without tags or fusion partners. Residues count along the entry.
UniProt P04004, residues 20-478: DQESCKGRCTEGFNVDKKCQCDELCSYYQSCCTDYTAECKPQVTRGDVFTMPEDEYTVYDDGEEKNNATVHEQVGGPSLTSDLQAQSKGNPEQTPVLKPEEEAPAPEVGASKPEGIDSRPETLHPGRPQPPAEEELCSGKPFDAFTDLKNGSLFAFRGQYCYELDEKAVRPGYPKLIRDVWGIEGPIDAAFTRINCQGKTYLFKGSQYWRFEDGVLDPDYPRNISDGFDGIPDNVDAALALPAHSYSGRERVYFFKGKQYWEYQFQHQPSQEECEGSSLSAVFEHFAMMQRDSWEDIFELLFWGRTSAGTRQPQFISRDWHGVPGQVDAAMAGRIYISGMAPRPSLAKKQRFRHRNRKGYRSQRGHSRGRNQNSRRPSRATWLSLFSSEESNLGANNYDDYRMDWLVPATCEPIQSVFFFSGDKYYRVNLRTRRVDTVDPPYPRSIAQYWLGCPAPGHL

Measured: binding

PAI-1 cleaved by elastase at the P4 position of the reactive center loop (from UniProt P05121 24-366)
binds: all assays above
